Data reported in the supplement of paper PMC7580552.
Counter-ions that a name gives are not always drawn. This is one part of the list. Plates or batches differ in their baseline, so values are only roughly comparable.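 A K-12 lab model strain is cultured statically in 96-well plates; biofilm is measured as the absorbance of crystal violet stain retained in the wells. Drugs counted as candidate specific biofilm blockers if they strongly reduced staining while slowing planktonic growth by under 70%.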

These molecules were tested on Escherichia coli W3110 (assay: biofilm formation (crystal violet staining) relative to untreated control; higher = more biofilm). Details: 10 µM; 20-24 h; 30 °C; TB.
Molecule O=c1[nH]c(=O)n([C@H]2C[C@H](O)[C@@H](CO)O2)cc1C(F)(F)F [Trifluridine] has a biofilm formation of 87%. CC(C)NC(=N)NC(=N)Nc1ccc(Cl)cc1 [Proguanil hydrochloride] was tested, and the biofilm formation was 63%. CC(C)Cn1cnc2c(N)nc3ccccc3c21 [Imiquimod] showed a biofilm formation of 79%. Work on NC(=O)N1c2ccccc2CC(=O)c2ccccc21 [Oxcarbazepine] yielded a biofilm formation of 93%. Molecule Cc1cccc(Nc2ccncc2S(=O)(=O)NC(=O)NC(C)C)c1 [Torsemide] has a biofilm formation of 119%. Work on CC[N+](CC)(CC(=O)Nc1c(C)cccc1C)Cc1ccccc1 [Denatonium benzoate] yielded a biofilm formation of 98%. COc1cc(NS(=O)(=O)c2ccc(N)cc2)nc(OC)n1 [Sulfadimethoxine] was tested, and the biofilm formation was 43%. In the case of CC1(C)O[C@@H]2[C@@H](CO[C@@]3(COS(N)(=O)=O)OC(C)(C)O[C@@H]23)O1 [Topiramate], the biofilm formation is reported as 69%. Work on CN(C)c1cc(NC(=O)CNC(C)(C)C)c(O)c2c1C[C@H]1C[C@H]3[C@H](N(C)C)C(O)=C(C(N)=O)C(=O)[C@@]3(O)C(O)=C1C2=O [Tigecycline] yielded a biofilm formation of 50%. Work on Cc1nccn1CC1CCc2c(c3ccccc3n2C)C1=O (centres undefined) [Ondansetron Hydrochloride] yielded a biofilm formation of 79%. CC(=O)NC[C@H]1CN(c2ccc(N3CCOCC3)c(F)c2)C(=O)O1 [Linezolid] gave a biofilm formation of 99%. Work on COc1ccc2c(c1)c(CC(=O)OCC(=O)O)c(C)n2C(=O)c1ccc(Cl)cc1 [Acemetacin] yielded a biofilm formation of 55%. CCOCCn1c(N2CCCN(C)CC2)nc2ccccc21 [Emedastine] gave a biofilm formation of 97%. With Cc1cccn2c(=O)c(-c3nnn[nH]3)cnc12 [Pemirolast potassium] the biofilm formation was 58%. In the case of CC[C@H](C)C(=O)O[C@H]1C[C@H](O)C=C2C=C[C@H](C)[C@H](CC[C@@H](O)C[C@@H](O)CC(=O)O)[C@H]21 [Pravastatin], the biofilm formation is reported as 106%. Work on CC(C)(C)NCC(O)COc1cccc2c1CC(O)C(O)C2 (centres undefined) [Nadolol] yielded a biofilm formation of 70%. C#CC1(O)CC[C@H]2[C@@H]3CCC4=CC(=O)CC[C@@H]4[C@H]3CC[C@@]21CC (stereo partly drawn) [Norgestrel-(-)] was tested, and the biofilm formation was 78%. Cc1cccc(C)c1NC(=O)CN1CCN(CCCC(c2ccc(F)cc2)c2ccc(F)cc2)CC1 [Lidoflazine] gave a biofilm formation of 83%. CC(=O)O[C@]1(C(C)=O)CC[C@H]2[C@@H]3C=C(C)C4=CC(=O)CC[C@]4(C)[C@H]3CC[C@@]21C [Megestrol acetate] showed a biofilm formation of 77%. Molecule Nc1nnc(-c2cccc(Cl)c2Cl)c(N)n1 [Lamotrigine] has a biofilm formation of 69%. Work on CC[C@@]1(O)C(=O)OCc2c1cc1n(c2=O)Cc2cc3c(CN(C)C)c(O)ccc3nc2-1 [Topotecan] yielded a biofilm formation of 112%. Clc1cc(Cl)c(OCC#CI)cc1Cl [Haloprogin] showed a biofilm formation of 53%. Molecule Nc1nc(=O)[nH]cc1F [Flucytosine] has a biofilm formation of 53%. O=C(Nc1ccccc1)OCC(CN1CCCCC1)OC(=O)Nc1ccccc1 (centres undefined) [Diperodon hydrochloride] was tested, and the biofilm formation was 72%. With CCCC(=O)Nc1ccc(OCC(O)CNC(C)C)c(C(C)=O)c1 (centres undefined) [Acebutolol hydrochloride] the biofilm formation was 67%. In the case of CC(=O)Nc1ccc(OCC(O)CNC(C)C)cc1 (centres undefined) [Practolol], the biofilm formation is reported as 55%. Molecule CN1[C@@H]2CC[C@H]1C[C@@H](OC(c1ccccc1)c1ccccc1)C2 [Benztropine mesylate] has a biofilm formation of 78%. N=C(N=C(N)N)N1CCOCC1 [Moroxidine hydrochloride] was tested, and the biofilm formation was 66%. Work on CC(=O)OCC(=O)[C@@]12OC3(CCCC3)O[C@@H]1C[C@H]1[C@@H]3CCC4=CC(=O)C=C[C@]4(C)[C@@]3(F)[C@@H](O)C[C@@]12C [Amcinonide] yielded a biofilm formation of 72%. For Cc1c(F)c(N2CCNC(C)C2)cc2c1c(=O)c(C(=O)O)cn2C1CC1 (centres undefined) [Grepafloxacin], the biofilm formation was 3%. With CNCC[C@@H](Oc1ccccc1C)c1ccccc1 [Tomoxetine hydrochloride] the biofilm formation was 102%. O=C(CCCCC(=O)Nc1c(I)cc(I)c(C(=O)O)c1I)Nc1c(I)cc(I)c(C(=O)O)c1I [Iodipamide] gave a biofilm formation of 63%. In the case of O=C(O)Cc1cc(I)c(Oc2ccc(O)c(I)c2)c(I)c1 [Tiratricol, 3,3',5-triiodothyroacetic acid], the biofilm formation is reported as 74%. Molecule COCCCOc1ccnc(C[S+]([O-])c2nc3ccccc3[nH]2)c1C (centres undefined) [Rabeprazole Sodium salt] has a biofilm formation of 90%. For CCCc1nc2c(C)cc(-c3nc4ccccc4n3C)cc2n1Cc1ccc(-c2ccccc2C(=O)O)cc1 [Telmisartan], the biofilm formation was 66%. COCCCOc1cc(C[C@@H](C[C@H](N)[C@@H](O)C[C@H](C(=O)NCC(C)(C)C(N)=O)C(C)C)C(C)C)ccc1OC [Aliskiren hemifumarate] gave a biofilm formation of 50%. Molecule CCCCOC(=O)c1ccc(O)cc1 [Butylparaben] has a biofilm formation of 48%. Work on CC(=O)/N=c1/sc(S(N)(=O)=O)nn1C [Methazolamide] yielded a biofilm formation of 75%. In the case of N=C(N)N1CCc2ccccc2C1 [Debrisoquin sulfate], the biofilm formation is reported as 65%. In the case of CCCCC1C(=O)N(c2ccccc2)N(c2ccccc2)C1=O [Phenylbutazone], the biofilm formation is reported as 93%. Work on CCN(CC)C(=O)Nc1ccc(OCC(O)CNC(C)(C)C)c(C(C)=O)c1 (centres undefined) [Celiprolol hydrochloride] yielded a biofilm formation of 81%. With N[C@H]1CONC1=O [(S)-(-)-Cycloserine] the biofilm formation was 59%. CCCCC1C(=O)N(c2ccccc2)N(c2ccc(O)cc2)C1=O (centres undefined) [Oxyphenbutazone] showed a biofilm formation of 72%. Molecule COc1cc2nc(N3CCN(C(=O)C4COc5ccccc5O4)CC3)nc(N)c2cc1OC (centres undefined) [Doxazosin mesylate] has a biofilm formation of 67%. For CCN(CC)C(=O)C1(c2ccccc2)CC1CN (centres undefined) [Milnacipran hydrochloride], the biofilm formation was 99%. Molecule Cc1cc(C(C)(C)C)cc(C)c1CC1=NCCN1 [Xylometazoline hydrochloride] has a biofilm formation of 74%. For CCN(CCCCOC(=O)c1ccc(OC)c(OC)c1)C(C)Cc1ccc(OC)cc1 (centres undefined) [Mebeverine hydrochloride], the biofilm formation was 70%. Molecule O=P(O)(O)C(O)(Cn1ccnc1)P(=O)(O)O [Zoledronic acid hydrate] has a biofilm formation of 50%. CCN(CC)CCOCCOC(=O)C1(c2ccccc2)CCCC1 [Carbetapentane citrate] gave a biofilm formation of 93%.
